# Measurements taken from patent US12703730B2 (HANMI PHARM. CO., LTD., priority 2017, dated 2026).
# Test: peptide synthesis
# Details: conjugation step, HPLC reverse analysis
substance,measurement,value
CA-GLP-2 RC-PEG(10K)-immunoglobulin Fc,final HPLC purity,95.6%
